Results from patent US20100150924A1 (published 2010).
These are yes or no findings as the source states them, for the method shown. Some binding calls cover weakened binding; strength is not graded here. Sequences can lack the tags named with a protein.

Key:
[1] = biological target: T1, Necl4-FL (myc-tagged full length Necl4, pMX-SSmyc-Necl4FL) on infected 3T3 cells (mouse/rat (chimeric)); assay: Fc-fusion binding to non-permeabilized infected 3T3 cells
T1 sequence: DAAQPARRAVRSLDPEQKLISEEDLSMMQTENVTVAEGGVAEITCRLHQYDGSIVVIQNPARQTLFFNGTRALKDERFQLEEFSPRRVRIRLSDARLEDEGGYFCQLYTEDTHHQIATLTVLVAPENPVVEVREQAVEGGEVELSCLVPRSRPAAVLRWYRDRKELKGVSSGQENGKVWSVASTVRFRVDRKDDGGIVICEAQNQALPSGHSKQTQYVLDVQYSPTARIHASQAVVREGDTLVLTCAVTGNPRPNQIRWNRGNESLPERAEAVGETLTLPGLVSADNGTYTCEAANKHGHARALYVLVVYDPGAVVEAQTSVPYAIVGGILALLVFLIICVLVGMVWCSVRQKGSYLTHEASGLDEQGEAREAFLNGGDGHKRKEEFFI

[2] = biological target: T2, Necl4-dCT (myc-tagged Necl4 lacking the entire cytoplasmic domain, pMX-SSmyc-Necl4dCT) on infected 3T3 cells (mouse/rat (chimeric)); assay: as above
T2 sequence: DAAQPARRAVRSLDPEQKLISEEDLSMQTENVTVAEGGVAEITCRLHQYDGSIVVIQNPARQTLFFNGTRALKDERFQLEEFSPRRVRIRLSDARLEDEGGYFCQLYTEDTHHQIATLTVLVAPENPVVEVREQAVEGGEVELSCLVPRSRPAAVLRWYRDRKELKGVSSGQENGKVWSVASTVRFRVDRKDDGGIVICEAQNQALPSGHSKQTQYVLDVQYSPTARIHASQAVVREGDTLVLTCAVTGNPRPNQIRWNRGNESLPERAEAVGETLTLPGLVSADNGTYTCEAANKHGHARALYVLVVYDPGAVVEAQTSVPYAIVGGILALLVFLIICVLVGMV

[3] = biological target: T1, Necl4-FL (myc-tagged full length Necl4, pMX-SSmyc-Necl4FL) on infected 3T3 cells (mouse/rat (chimeric)); assay: Fc-fusion binding to infected 3T3 fibroblasts
[4] = biological target: T2, Necl4-dCT (myc-tagged Necl4 lacking the entire cytoplasmic domain, pMX-SSmyc-Necl4dCT) on infected 3T3 cells (mouse/rat (chimeric)); assay: Fc-fusion binding to infected 3T3 fibroblasts
[5] = biological target: T3, endogenous rat Necl4 (on cultured rat Schwann cells; also in rat brain membranes and sciatic nerve) (rat) (UniProt Q1WIM1); assay: Fc-fusion binding to rat Schwann cells after Necl4 siRNA or control siRNA; aggregated Necl1-Fc also co-clustered Necl4
T3 sequence (looked up): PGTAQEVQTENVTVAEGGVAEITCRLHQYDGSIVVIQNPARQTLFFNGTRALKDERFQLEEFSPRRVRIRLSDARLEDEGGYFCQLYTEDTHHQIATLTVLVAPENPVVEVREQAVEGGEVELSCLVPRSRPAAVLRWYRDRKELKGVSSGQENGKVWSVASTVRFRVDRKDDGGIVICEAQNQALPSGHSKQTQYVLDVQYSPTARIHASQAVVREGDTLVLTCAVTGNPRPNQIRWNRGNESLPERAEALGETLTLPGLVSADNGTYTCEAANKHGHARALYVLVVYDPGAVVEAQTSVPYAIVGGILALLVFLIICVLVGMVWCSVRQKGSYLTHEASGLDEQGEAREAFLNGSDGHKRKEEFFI

[6] = biological target: T3, endogenous rat Necl4 (on cultured rat Schwann cells; also in rat brain membranes and sciatic nerve) (rat); assay: Fc-fusion binding to rat Schwann cells after Necl4 siRNA or control siRNA
[7] = biological target: T3, endogenous rat Necl4 (on cultured rat Schwann cells; also in rat brain membranes and sciatic nerve) (rat); assay: clustering of bound Fc-fusion on rat Schwann cells, then immunostaining

binding [1]: binds
binding [2]: binds
binding [3]: binds
binding [4]: binds
binding [5]: binds
binding [6]: binds
binding [7]: binds
B1: Necl1-Fc (extracellular domain of Necl1 fused to the constant region of human IgG1) (Fc fusion)
chain: NLSQDGYWQEQDLELGTPAPLEEALSSTVWSNPDLLASQDSQPWTSDETVVAGGTVVLKCQVKDHEDSSLQWSNPAQQTLYFGEKRALRDNRIQLVSSTPHELSISISNVALADEGEYTCSIFTMPVRTAKSLVTVLGIPQKPIITGYKSSLREKETATLNCQSSGSKPAAQLAWRKGDQELHGDQTRIQEDPNGKTFTVSSSVSFQVTRDDDGANVVCSVNHESLKGADRSTSQRIEVLYTPTAMIRPEPAHPREGQKLLLHCEGRGNPVPQQYVWVKEGSEPPLKMTQESALIFPFLNKSDSGTYGCTATSNMGSYTAYFTLNVNDPSPVPSSSST
notes: Produced in HEK 293T cells; also called soluble Necl1; Nel1-Fc; not shown: constant region (Fc) of human IgG1
